Data as given in the supplement of paper PMC4604168 (melanoma cell lines).
This is one part of the list. Single values are uncertain, as repeats are few or missing.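 Cells were imaged in 1,536-well plates, and nuclei stained with an antibody against cleaved PARP were counted against all DNA-stained nuclei to give the apoptosis fraction. Screening doses were chosen to leave most cells alive, and resting and induced cleaved-PARP levels differ strongly between cell lines.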

Key:
Assay in all cases: cleaved PARP positive nuclei fraction relative to DMSO control; melanoma cells; higher = more apoptosis
Settings in all cases: library dose: low library concentration; 72 h
MZ2-MEL = system: MZ2-MEL
MeWo = system: MeWo
RPMI7951 = system: RPMI7951
RVH-421 = system: RVH-421
SkMel28 = system: SkMel28
SkMel30 = system: SkMel30
UACC62 = system: UACC62
WM115 = system: WM115
WM1716 = system: WM1716
WM1745 = system: WM1745
WM3526 = system: WM3526
WM3619 = system: WM3619
WM451Lu = system: WM451Lu
SkMel2 = system: SkMel2
SkMel5 = system: SkMel5
UACC257 = system: UACC257

| SMILES | cleaved PARP positive nuclei fraction (MZ2-MEL) [%] | cleaved PARP positive nuclei fraction (MeWo) [%] | cleaved PARP positive nuclei fraction (RPMI7951) [%] | cleaved PARP positive nuclei fraction (RVH-421) [%] | cleaved PARP positive nuclei fraction (SkMel28) [%] | cleaved PARP positive nuclei fraction (SkMel30) [%] | cleaved PARP positive nuclei fraction (UACC62) [%] | cleaved PARP positive nuclei fraction (WM115) [%] | cleaved PARP positive nuclei fraction (WM1716) [%] | cleaved PARP positive nuclei fraction (WM1745) [%] | cleaved PARP positive nuclei fraction (WM3526) [%] | cleaved PARP positive nuclei fraction (WM3619) [%] | cleaved PARP positive nuclei fraction (WM451Lu) [%] | cleaved PARP positive nuclei fraction (SkMel2) [%] | cleaved PARP positive nuclei fraction (SkMel5) [%] | cleaved PARP positive nuclei fraction (UACC257) [%] |
| --- | --- | --- | --- | --- | --- | --- | --- | --- | --- | --- | --- | --- | --- | --- | --- | --- |
| Cc1cc(Nc2cc(N3CCN(C)CC3)nc(/C=C/c3ccccc3)n2)n[nH]1 + CO[C@H]1C[C@@H]2CC[C@@H](C)[C@@](O)(O2)C(=O)C(=O)N2CCCC[C@H]2C(=O)O[C@H]([C@H](C)C[C@@H]2CC[C@@H](OCCO)[C@H](OC)C2)CC(=O)[C@H](C)/C=C(\C)[C@@H](O)[C@@H](OC)C(=O)[C@H](C)C[C@H](C)/C=C/C=C/C=C/1C [everolimus] (first compound 0.04 µM, partner dose 0.02 µM) | 104 | 99.5 | 85.3 | 112 | 508 | 124 | 257 | 94.6 | 238 | 95.8 | 60.6 | 232 | 151 |  |  |  |
| CO[C@H]1C[C@@H]2CC[C@@H](C)[C@@](O)(O2)C(=O)C(=O)N2CCCC[C@H]2C(=O)O[C@H]([C@H](C)C[C@@H]2CC[C@@H](OCCO)[C@H](OC)C2)CC(=O)[C@H](C)/C=C(\C)[C@@H](O)[C@@H](OC)C(=O)[C@H](C)C[C@H](C)/C=C/C=C/C=C/1C [everolimus] + Nc1nc(F)nc2c1ncn2[C@@H]1O[C@H](CO)[C@@H](O)[C@@H]1O [fludarabine] (first compound 0.02 µM, partner dose 0.2 µM) | 113 | 522 | 94.1 | 89.9 | 886 | 3870 | 355 | 160 | 100 | 102 | 320 | 110 | 207 |  |  |  |
| CO[C@H]1C[C@@H]2CC[C@@H](C)[C@@](O)(O2)C(=O)C(=O)N2CCCC[C@H]2C(=O)O[C@H]([C@H](C)C[C@@H]2CC[C@@H](OCCO)[C@H](OC)C2)CC(=O)[C@H](C)/C=C(\C)[C@@H](O)[C@@H](OC)C(=O)[C@H](C)C[C@H](C)/C=C/C=C/C=C/1C [everolimus] + C=C(c1ccc(C(=O)O)cc1)c1cc2c(cc1C)C(C)(C)CCC2(C)C [Bexarotene] (first compound 0.02 µM, partner dose 2 µM) | 186 | 46.1 | 247 | 64.5 | 419 | 56.1 | 425 | 165 | 72.1 | 105 | 71.4 | 102 | 234 |  |  |  |
| CN1CCN(c2ccc3nc(-c4c(N)c5c(F)cccc5[nH]c4=O)[nH]c3c2)CC1 [Dovitinib] + O=S(=O)(c1ccccc1)N(CC(F)(F)F)c1ccc(C(O)(C(F)(F)F)C(F)(F)F)cc1 [T0901317] (first compound 0.1 µM, partner dose 1.4 µM) |  | 33.7 | 95.6 | 170 | 129 | 28.4 | 132 | 115 | 33 | 254 | 103 | 85.9 | 33 | 52.1 | 85.1 | 67.5 |
| Nc1nc(F)nc2c1ncn2[C@@H]1O[C@H](CO)[C@@H](O)[C@@H]1O [fludarabine] + Oc1nc(-c2ccc(C(F)(F)F)cc2)nc2c1CSCC2 [XAV939] (first compound 0.2 µM, partner dose 2 µM) |  | 200 | 160 | 72.9 | 81.9 | 309 | 79.4 | 40.6 | 228 | 112 | 607 | 170 | 613 | 1330 | 151 | 390 |
| CO[C@H]1C[C@@H]2CC[C@@H](C)[C@@](O)(O2)C(=O)C(=O)N2CCCC[C@H]2C(=O)O[C@H]([C@H](C)C[C@@H]2CC[C@@H](OCCO)[C@H](OC)C2)CC(=O)[C@H](C)/C=C(\C)[C@@H](O)[C@@H](OC)C(=O)[C@H](C)C[C@H](C)/C=C/C=C/C=C/1C [everolimus] + Nc1ccn([C@@H]2O[C@H](CO)[C@@H](O)C2(F)F)c(=O)n1 [gemcitabine] (first compound 0.02 µM, partner dose 0.0004 µM) | 102 | 103 | 83.2 | 108 | 141 | 102 | 357 | 113 | 119 | 257 | 154 | 155 | 54 |  |  |  |
| C[C@@H](Oc1cc(-c2cnn(C3CCNCC3)c2)cnc1N)c1c(Cl)ccc(F)c1Cl [Crizotinib] + O=C(Nc1ccccc1)c1cc([N+](=O)[O-])ccc1Cl [GW9662] (first compound 0.2 µM, partner dose 2 µM) |  | 53.4 | 129 | 96.7 | 89.4 | 55.7 | 56.6 | 68.1 | 125 | 98.1 | 202 | 96.9 | 183 | 103 | 78.4 | 78.4 |
| CS(=O)(=O)CCNCc1ccc(-c2ccc3ncnc(Nc4ccc(OCc5cccc(F)c5)c(Cl)c4)c3c2)o1 [lapatinib] + COc1cc(Nc2ncc(F)c(Nc3ccc4c(n3)NC(=O)C(C)(C)O4)n2)cc(OC)c1OC [Tamatinib] (first compound 0.8 µM, partner dose 0.4 µM) |  | 64 | 99 | 67.9 | 55.3 | 65.4 | 164 | 105 | 72.3 | 107 | 63.3 | 106 | 136 | 131 | 197 | 192 |
